Percent effect of library compounds

Sequences of proteins named here, by UniProt entry; tags and fusion partners are left off.
UniProt P9WFT3, whole entry: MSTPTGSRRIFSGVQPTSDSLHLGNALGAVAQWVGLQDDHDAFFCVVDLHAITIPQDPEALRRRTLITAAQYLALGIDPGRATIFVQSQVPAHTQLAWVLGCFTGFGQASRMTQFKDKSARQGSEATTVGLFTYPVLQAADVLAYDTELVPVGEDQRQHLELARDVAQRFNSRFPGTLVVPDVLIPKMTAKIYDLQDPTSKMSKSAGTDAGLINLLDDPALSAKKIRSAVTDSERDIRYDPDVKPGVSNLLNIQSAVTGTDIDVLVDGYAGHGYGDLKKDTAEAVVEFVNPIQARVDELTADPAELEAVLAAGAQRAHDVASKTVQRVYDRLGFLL

Data taken from ChEMBL document CHEMBL3988442, “University of Dundee, Small-Polar-MMV Screening Library” (2021).

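Enzyme assay of tryptophanyl-tRNA synthetase; the read-out is not stated. Target: Tryptophan-tRNA ligase, Mycobacterium tuberculosis (UniProt P9WFT3). Compounds at 10 µM. Direction is not recorded; retested compounds ran higher, which suggests that high means inhibition. Size under these conditions: about 65,000 compounds, about 64 of them at 50% or above in at least one test.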

The filed quantity is “Percent Effect” (%). How 0% and 100% were set is not recorded. Most values in the screen are low, and negative values occur. Compounds were drawn at random from those tested, without regard to their results.

CCOC(=O)c1cnn(C2CCN(C(=O)CC3CCCC3)CC2)c1N gave -0.4599%.
Cc1ccsc1C(=O)N1CCCc2c(c(=O)n(C)n2C)C1 gave -1.036%.
CC1CN(C)CCN1CC(=O)NCCOc1ccc2c(c1)OCO2 (stereo not given) gave 18.87%.
CC(C)(C)n1ncc(NCC(O)c2ccccc2)c(Cl)c1=O (stereo not given) gave 3.355%.
CN1C(=O)c2cccc(NC(=O)c3ccc4c(c3)OCCO4)c2C1=O gave -4.25%.
Cc1ccc2c(-c3nc4c([nH]3)CCNC4C(=O)O)cccc2n1 (stereo not given) gave -4.931%.
O=C(CCOc1ccc(F)cc1)N1CCCC1Cn1cccn1 (stereo not given) gave -3.888%.
Cc1nn(-c2ccc(C(=O)O)cc2)c2c1C(C(F)(F)F)SCC(=O)N2 (stereo not given) gave -7.72%.
Cn1cc(CN2CCO[C@H]3C(Cn4cccn4)CC[C@@H]32)cn1 (stereo not given in full) gave -5.708%.
O=C(NCCNc1ncccn1)N1CCCC1 gave -10.59%.
CC(C)(C)c1ccc2c(c1)CCN2C(=O)c1ccc(=O)[nH]n1 gave -2.77%.
OC(COCc1ccccc1Cl)CN1CCC(c2ccn[nH]2)CC1 (stereo not given) gave -2.521%.
CN(C)C1COC2(CCN(C(=O)c3cccnc3)CC2)C1 (stereo not given) gave -2.183%.
Cc1ccc(CN2CC[C@H]3CO[C@H](CN4CCN(C)CC4)[C@H]3C2)o1 gave -4.661%.
COc1c(CNC2CCc3cc(F)ccc32)c(C(C)C)nn1C (stereo not given) gave 11.07%.
COCC(=O)N[C@H]1C[C@H]2C(=O)NC[C@@H](CCC(=O)NC3CC3)N2C1 gave -7.304%.
CC1c2ncc(COCc3ccccn3)n2CCN1C1CCCC1 (stereo not given) gave 2.509%.
Cc1noc(C)c1S(=O)(=O)NC(=O)COc1ccc(C(C)C)cc1 gave -1.07%.
Cc1nsc(N2CCCN(C(=O)CCc3ccsc3)CC2)n1 gave -0.1023%.
CNc1cc(C2CCCN2C(=O)CCc2ccccc2F)ccn1 (stereo not given) gave -4.416%.
CC1CCC(NS(=O)(=O)CC(=O)NCC2CCC2)CC1 (stereo not given) gave 2.592%.
CN(C)C(=O)N1CC2(CCOCC2)c2cc(NS(=O)(=O)C3CC3)ccc21 gave -0.2907%.
CC(C)c1nnc2n1CCN(C(=O)c1cnc(C3CC3)s1)C2 gave -6.612%.
COc1cccc(NC(=O)NC2(c3noc(CN(C)C)n3)CCCC2)c1 gave 4.169%.
O=C(O)CCN(Cc1ccc(F)c(F)c1)C(=O)C1CC1 gave 4.744%.
COc1c(C)cnc(CN(C)C(=O)c2cccc(NC(N)=O)c2)c1C gave -2.821%.
Cc1cccc(C(=O)N2CCN(C(=O)Cc3ccccn3)CC2)c1C gave -6.39%.
Cc1nccn1-c1ncccc1NC(=O)CCOCC(C)C gave -1.083%.
COc1cc(NCc2ccc(Cl)cc2)c(-c2nn[nH]n2)cc1OC gave 7.129%.
Cc1nn(C)c(Cl)c1C1CCCN1Cc1noc(C2CC2)n1 (stereo not given) gave -2.534%.
CC[C@H]1CN(S(C)(=O)=O)CC[C@H]1CC(=O)NCCOC gave 9.111%.
CC(Cn1cccn1)NS(=O)(=O)Cc1ccc(F)cc1 (stereo not given) gave 10.5%.
O=C(c1sccc1Br)N1CCOCC1 gave -6.989%.
CN(Cc1csc(-c2ccccc2)n1)C(=O)CCNS(C)(=O)=O gave 3.665%.
Cc1cc(C)c2nc(CN3CCC(C#N)CC3)cc(O)c2c1 gave -5.589%.
COc1ccc(NC2CCCN(Cc3cnc(N(C)C)s3)C2)cc1 (stereo not given) gave 2.156%.
CN(Cc1cccnc1)Cc1cn2c(n1)CN(C1CCOCC1)CC2 gave -0.2722%.
Cc1nn(C)c(C)c1OCC(=O)NCc1cccc(C(=O)O)c1 gave -0.6369%.
CC(C)C(=O)NCCNc1nccc(-c2cc(C(=O)O)ccn2)n1 gave -1.212%.
CS(=O)(=O)NCc1ccc2c(c1)CCC2 gave 0.2601%.
CN(C)C(=O)CN1C(=O)CCC12CCN(Cc1cccs1)CC2 gave -0.6634%.
CC(C)n1[nH]c(=O)c2c1NC(=O)CC2c1cccc(O)c1 (stereo not given) gave 0.3708%.
Clc1cc(N2CCC(N3CCCC3)CC2)nc2[nH]ccc12 gave 0.8811%.
O=C1NCCCC[C@@H]1NC(=O)C1(N2CCCCC2)Cc2ccccc2C1 gave 5.548%.
Cc1cc(=O)n(C)cc1NC(=O)Cc1cc(F)ccc1F gave 10.88%.
CCCN1C(=O)C2(CCCCC2)NC1c1cn(C)c(=O)n(C)c1=O (stereo not given) gave -0.7597%.
Cc1cc(C)cc(N2CCN(Cc3cccnc3)CC2=O)c1 gave 0%.
CN(C(=O)c1ccc(-n2ncc(C#N)c2N)cc1)C1CCCC1 gave 2.442%.
CS(=O)(=O)NC[C@]12COC[C@H]1CN(C(=O)CCc1ccccc1)C2 gave 0.3984%.
CN(Cc1nccn1CC(F)(F)F)C(=O)c1ccc(F)c(F)c1 gave -2.013%.
Cc1cc(CN2CCC(N(C)Cc3noc(C4CC4)n3)C2)on1 (stereo not given) gave 15.5%.
N#Cc1nccnc1N1CCC(CSc2ccccc2)C1 (stereo not given) gave 3.109%.
O=C(CN1CCOCS1(=O)=O)NCc1ccccc1 gave 5.926%.
CCCOCC1CCN(C(=O)c2cnc(-c3cccnc3)nc2O)C1 (stereo not given) gave 0.3221%.
Cc1cc(C(F)(F)F)nc(N2CCN(Cc3nccn3C)CC2)n1 gave 6.741%.
Cc1ccnc(OC[C@@]23CCO[C@@H]2CCN(c2ncccn2)C3)n1 gave 19.12%.
CC(C)(C)c1cn2nc(N3CCCC3Cn3cccn3)sc2n1 (stereo not given) gave -1.484%.
Nc1nc(C2CCN(C(=O)c3cscn3)CC2)cs1 gave 3.348%.

For reference, 6 entries once more:

For CN(C)C1COC2(CCN(C(=O)c3cccnc3)CC2)C1 (stereo not given) the result was -2.183%.
For CN(Cc1nccn1CC(F)(F)F)C(=O)c1ccc(F)c(F)c1 the result was -2.013%.
For CC(Cn1cccn1)NS(=O)(=O)Cc1ccc(F)cc1 (stereo not given) the result was 10.5%.
For COc1cccc(NC(=O)NC2(c3noc(CN(C)C)n3)CCCC2)c1 the result was 4.169%.
For Cc1cc(=O)n(C)cc1NC(=O)Cc1cc(F)ccc1F the result was 10.88%.
For Cc1ccnc(OC[C@@]23CCO[C@@H]2CCN(c2ncccn2)C3)n1 the result was 19.12%.